Reference: publication PMC4161973
Results are given in words; binding and its absence hold for the method and conditions named. Binding seen in cells or lysates may run through a third protein. Binding calls can cover weak binding; strength is not graded here. Where a sequence is shown, tags or fusion partners need not be part of it.

Protein sequences, listed by entry. Tags and fused reporters are not part of them. Lines headed by an entry give the natural chain unless they say otherwise; changes in a name come on top.
UniProt P39938: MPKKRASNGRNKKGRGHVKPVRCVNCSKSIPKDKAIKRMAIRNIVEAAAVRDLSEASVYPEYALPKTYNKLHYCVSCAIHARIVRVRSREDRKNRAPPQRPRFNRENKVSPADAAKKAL

Key:
GST-Pse1 (S. cerevisiae) = biological target: T1, GST-Pse1 (S. cerevisiae) (UniProt P32337); test: pull-down; dissociation assay, 1 hr: GST-importin:r-protein^FLAG complexes pre-formed on Glutathione Sepharose (r-protein from E. coli lysate) incubated with buffer alone, 1.5 µM RanGTP, 1.5 µM Tsr2 or His6-Tsr2, or 3 nM 3'-end of 18S rRNA for 1 hr at 4°C; only the target purified
T1 sequence: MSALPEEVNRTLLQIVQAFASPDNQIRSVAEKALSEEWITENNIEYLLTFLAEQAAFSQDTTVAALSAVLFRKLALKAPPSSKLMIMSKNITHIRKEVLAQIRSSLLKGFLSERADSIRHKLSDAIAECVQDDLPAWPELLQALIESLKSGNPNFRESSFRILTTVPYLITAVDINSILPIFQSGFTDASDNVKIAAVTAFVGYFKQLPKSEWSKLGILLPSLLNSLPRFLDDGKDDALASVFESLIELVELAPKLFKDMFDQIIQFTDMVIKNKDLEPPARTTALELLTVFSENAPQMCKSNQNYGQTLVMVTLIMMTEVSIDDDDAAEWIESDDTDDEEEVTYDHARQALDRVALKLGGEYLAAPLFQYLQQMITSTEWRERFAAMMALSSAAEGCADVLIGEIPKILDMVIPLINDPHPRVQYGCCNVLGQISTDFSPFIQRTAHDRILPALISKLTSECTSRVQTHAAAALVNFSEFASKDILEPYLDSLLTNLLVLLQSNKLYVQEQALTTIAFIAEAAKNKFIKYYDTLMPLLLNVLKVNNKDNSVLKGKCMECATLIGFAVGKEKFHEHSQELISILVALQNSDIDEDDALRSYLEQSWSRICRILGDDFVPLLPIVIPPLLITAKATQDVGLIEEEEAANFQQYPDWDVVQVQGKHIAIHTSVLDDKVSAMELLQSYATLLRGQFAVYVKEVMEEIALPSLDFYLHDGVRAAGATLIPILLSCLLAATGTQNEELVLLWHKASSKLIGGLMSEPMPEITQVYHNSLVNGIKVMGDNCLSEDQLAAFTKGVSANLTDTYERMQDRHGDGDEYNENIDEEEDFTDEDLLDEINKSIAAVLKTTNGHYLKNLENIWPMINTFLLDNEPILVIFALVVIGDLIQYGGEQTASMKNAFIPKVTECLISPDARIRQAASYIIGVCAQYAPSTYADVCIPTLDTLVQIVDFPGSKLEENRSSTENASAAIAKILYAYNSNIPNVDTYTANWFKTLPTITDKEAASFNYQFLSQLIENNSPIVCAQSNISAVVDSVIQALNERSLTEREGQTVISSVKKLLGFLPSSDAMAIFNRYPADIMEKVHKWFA

[1] = biological target: T2, GST-Kap123 (S. cerevisiae) (UniProt P40069); test: as above
T2 sequence: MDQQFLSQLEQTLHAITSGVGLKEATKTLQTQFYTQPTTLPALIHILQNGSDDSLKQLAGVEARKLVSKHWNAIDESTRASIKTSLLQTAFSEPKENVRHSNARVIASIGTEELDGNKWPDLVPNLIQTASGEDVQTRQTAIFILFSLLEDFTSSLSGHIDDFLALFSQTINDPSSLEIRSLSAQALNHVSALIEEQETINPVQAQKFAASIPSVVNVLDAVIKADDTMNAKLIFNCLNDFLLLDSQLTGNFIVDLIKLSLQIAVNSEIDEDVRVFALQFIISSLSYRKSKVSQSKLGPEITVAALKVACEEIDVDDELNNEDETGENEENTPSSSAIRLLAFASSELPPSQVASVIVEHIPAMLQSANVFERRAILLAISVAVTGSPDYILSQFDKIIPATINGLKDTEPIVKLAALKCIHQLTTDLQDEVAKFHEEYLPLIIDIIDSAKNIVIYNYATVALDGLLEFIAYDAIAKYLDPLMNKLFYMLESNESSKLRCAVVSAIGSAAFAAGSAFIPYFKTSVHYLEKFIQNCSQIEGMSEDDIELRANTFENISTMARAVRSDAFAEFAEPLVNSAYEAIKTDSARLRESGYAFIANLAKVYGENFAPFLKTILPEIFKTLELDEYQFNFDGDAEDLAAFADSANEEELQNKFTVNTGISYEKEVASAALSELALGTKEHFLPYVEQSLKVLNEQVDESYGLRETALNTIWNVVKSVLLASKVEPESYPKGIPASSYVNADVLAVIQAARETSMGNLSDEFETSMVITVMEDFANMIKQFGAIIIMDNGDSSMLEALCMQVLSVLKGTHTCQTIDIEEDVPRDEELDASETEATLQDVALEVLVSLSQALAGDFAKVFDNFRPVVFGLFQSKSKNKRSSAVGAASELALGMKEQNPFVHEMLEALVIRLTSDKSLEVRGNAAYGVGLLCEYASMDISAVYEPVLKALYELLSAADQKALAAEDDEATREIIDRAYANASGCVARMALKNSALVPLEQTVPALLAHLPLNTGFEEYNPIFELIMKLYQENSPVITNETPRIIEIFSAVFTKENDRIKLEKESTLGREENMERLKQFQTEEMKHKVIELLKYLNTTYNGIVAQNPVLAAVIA

Substance: eS26^FLAG (from UniProt P39938)
- binding (GST-Pse1 (S. cerevisiae)): binds
- binding [1]: binds
